Test results taken from patent US10912743B2, “Compositions for treating inflammation and methods of treating the same” (Novan, Inc., priority 2016, dated 2021).
At least one compound was matched to its structure with a doubt left.

Test system: oxazolone-induced ear swelling
Experiment: Oxazolone-induced ear swelling assay in BALB/c mice
Format: in vivo
Details: Example 2 study; vs vehicle control A and placebo ointment

SMILES: C[C@@H]1C[C@H]2[C@@H]3CCC4=CC(=O)C=C[C@]4(C)[C@@]3(F)[C@@H](O)C[C@]2(C)[C@@]1(O)C(=O)CO [Dexamethasone]
- Significance of inhibition of oxazolone-induced ear swelling: associated with significant inhibition
